Laboratory results as given in patent US20110206660A1 (Ablynx, published 2011).
Residue numbers refer to the chain shown, from its start. Results are given in words; binding and its absence hold for the method and conditions named. Some results given as binding are weak or reduced against the parent protein; the word gives no strength. Each block holds one binder with its values, some of them ahead of it.

The chains behind the UniProt entries cited, without tags or fusion partners. Where a name states a change or a piece, a line headed by the entry shows the natural chain unless it says otherwise.
UniProt P61073: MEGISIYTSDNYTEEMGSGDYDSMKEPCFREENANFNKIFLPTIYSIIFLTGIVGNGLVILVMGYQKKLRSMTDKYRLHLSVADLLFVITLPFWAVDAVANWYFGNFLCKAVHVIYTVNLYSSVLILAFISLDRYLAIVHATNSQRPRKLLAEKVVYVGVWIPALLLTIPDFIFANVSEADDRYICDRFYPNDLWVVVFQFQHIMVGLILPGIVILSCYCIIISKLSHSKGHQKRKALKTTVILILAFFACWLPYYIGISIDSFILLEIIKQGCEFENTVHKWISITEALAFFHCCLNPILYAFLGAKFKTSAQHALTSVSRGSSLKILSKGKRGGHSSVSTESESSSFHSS

Tests used:
[1] = target: T1, human CXCR4 (human, UniProt P61073-2 2-356); experiment: competition with [125I]-CXCL12, membranes of HEK293T cells expressing CXCR4
[2] = target: T1, human CXCR4; experiment: competition binding vs [125I]-238D4, HEK293T-CXCR4 membranes; purified Nanobody at 0.5 µM, tracer [125I]-238D4
[3] = target: T1, human CXCR4; experiment: competition with [125I]-238D4, membranes of HEK293T cells expressing CXCR4
[4] = target: T1, human CXCR4; experiment: competition binding vs [125I]-CXCL12, HEK293T-CXCR4 membranes; purified Nanobody at 0.5 µM, tracer [125I]-CXCL12
[5] = target: T1, human CXCR4; experiment: competition with [125I]-238D2, membranes of HEK293T cells expressing CXCR4
[6] = target: T1, human CXCR4; experiment: competition binding vs [125I]-238D2, HEK293T-CXCR4 membranes; purified Nanobody at 0.5 µM, tracer [125I]-238D2
[7] = target: T1, human CXCR4; experiment: [125I]-CXCL12 competition binding, periplasm 1:10, HEK293T-CXCR4 membranes, second screen
[8] = target: T1, human CXCR4; experiment: [125I]-CXCL12 competition binding, periplasm 1:10, HEK293T-CXCR4 membranes, primary screen
[9] = target: T2, constitutively active CXCR4 mutant N119A (UniProt P61073 1-352); experiment: competition with [125I]-CXCL12, membranes of HEK293T cells expressing CXCR4 N119A (N3.35A)
[10] = target: T1, human CXCR4; experiment: total binding of [125I]-238D4 to membranes of HEK293T cells expressing CXCR4 or CXCR3, without (-) and with 3 µM AMD3100
[11] = target: T1, human CXCR4; experiment: screen of periplasma fractions, competition vs [125I]-CXCL12, HEK293T-CXCR4 membranes
[12] = target: T1, human CXCR4; experiment: competition binding vs [125I]-CXCL12, HEK293T-CXCR4 membranes
[13] = target: T2, constitutively active CXCR4 mutant N119A; experiment: competition binding vs [125I]-CXCL12, membranes with CXCR4 (N119A)
[14] = target: T2, constitutively active CXCR4 mutant N119A; experiment: competition binding vs [125I]-CXCL12, membranes with CXCR4 (N119A); no plateau at 2 µM
[15] = target: T1, human CXCR4; experiment: total binding of the 125I-labelled Nanobody to membranes
[16] = target: T1, human CXCR4; experiment: phage ELISA: monoclonal phage on coated CHO-CXCR4 membranes against CHO membranes with a non relevant GPCR (-)

B1: 238D4-20GS-238D4 (VHH)
chain: EVQLMESGGGLVQAGGSLRLSCAASGRTFNNYAMGWFRRAPGKEREFVAAITRSGVRSGVSAIYGDSVKDRFTISRDNAKNTLYLQMNSLKPEDTAVYTCAASAIGSGALRRFEYDYSGQGTQVTVSSGGGGSGGGGSGGGGSGGGGSEVQLMESGGGLVQAGGSLRLSCAASGRTFNNYAMGWFRRAPGKEREFVAAITRSGVRSGVSAIYGDSVKDRFTISRDNAKNTLYLQMNSLKPEDTAVYTCAASAIGSGALRRFEYDYSGQGTQVTVSS
notes: Bivalent Nanobody, 20-residue GS linker; also called L13
binding [1]: binds

binding [1]: no binding (tested: log -6.3 M)
binding [2]: no binding (tested: 0.5 µM)
binding [3]: no binding (tested: log -6.3 M)
binding [4]: no binding (tested: 0.5 µM)
binding [5]: no binding (tested: log -6.3 M)
binding [6]: no binding (tested: 0.5 µM)
B2: Nanobody 237D1 (VHH)
VHH: EVQLVESGGGLAQPGGPLRLTCEASGVIYSVNDMGWYRQAPGKQRELVAVITSGGGTNYVDSVKGRFTISGDNRKKTVYLQMNSLKPEDTAVYYCSIYYSSGISTLRSWGQGTQVTVSS
notes: Monovalent VHH

binding [1]: no binding (tested: log -6.3 M)
binding [2]: no binding (tested: 0.5 µM)
binding [3]: no binding (tested: log -6.3 M)
binding [4]: no binding (tested: 0.5 µM)
binding [5]: no binding (tested: log -6.3 M)
binding [6]: no binding (tested: 0.5 µM)
B3: Nanobody 237G7 (VHH)
VHH: EVQLVESGGGLVQPGGSLRLSCAASSFIGNYHAIVWLRQAPGKELEGVSCITSRDSITYYASFVKGRFTISRDDAKNTVYLQMNNLKPEDTAVYYCAVBTSMTCPTLIVRFNYRGQGTQVTVSS
notes: Monovalent VHH

binding [7]: binds
binding [8]: binds
B4: 238C04 (VHH)
VHH: EVQLVESGGGLVQAGGSLRLSCKASGGTFNNYAMGWFRRAPGKEREFVAAITRSGVRSGVSAIYGDSVKDRFTISRDNVKNTLYLQMNTLKPEDTAVYTCAASAIGSGALRRFEYDYSGQGTQVTVSS

B5: Nanobody 238D4 (VHH)
VHH: B4 VHH with V5M, K23A, G27R, V79A, T89S
notes: Monovalent llama VHH; also called 238G3; 238D4, G3
binding [1]: binds
binding [7]: binds
binding [9]: binds
binding [10]: binds
binding [11]: binds
binding [3]: binds
binding [12]: binds
binding [13]: binds
binding [14]: binds
binding [5]: binds
binding [15]: binds
binding [8]: binds
binding [16]: binds

binding [7]: binds
binding [8]: binds
B6: 237D04 (VHH)
VHH: EVQLVESGGGLVQPGGSLRLSCAASGFTFDDYAMSWVRQAPGKGLEWVSAISWNGGSADYADSVKGRFTISRDNAKNTLYLQMNSLKSEDTAVYYCAKDQGPFYSGTYYYTKGYAYWGQGTQVTVSS

binding [1]: no binding (tested: log -6.3 M)
binding [2]: no binding (tested: 0.5 µM)
binding [3]: no binding (tested: log -6.3 M)
binding [4]: no binding (tested: 0.5 µM)
binding [5]: no binding (tested: log -6.3 M)
binding [6]: no binding (tested: 0.5 µM)
B7: Nanobody 237A6 (VHH)
VHH: EVQLVESGGGLVQAGGSLRLSCAASGSIFSLNAMGWYRQAPGKQRELVAGITSSTSTYYADSVKGRFTISRDNTKNTVYLQMNSLKPEDTAVYYCNVDCPDYYSDYECPLEDRGQGTQVTVSS
notes: Monovalent VHH
